Reference: US4265912A, “Glaucine lactate salts” (priority 1979, dated 1981)

Experiment: palatability (taste) of 0.2 percent salt solutions in distilled water
Details: 0.2 percent (weight by volume) solution in distilled water, few drops on tongue

SMILES	palatability / taste (hydrobromide)	palatability / taste
COc1cc2c(cc1OC)-c1c(OC)c(OC)cc3c1C(C2)N(C)CC3 (racemic) [d,l-glaucine hydrobromide]	objectionable with a bitter, sharp and metallic initial taste which increased with time	–
COc1cc2c(cc1OC)-c1c(OC)c(OC)cc3c1C(C2)N(C)CC3 (racemic) [succinate]	–	more objectionable than the hydrobromide
COc1cc2c(cc1OC)-c1c(OC)c(OC)cc3c1C(C2)N(C)CC3 (racemic) [d,l-glaucine lactate]	–	lack the sharp, metallic flavor and to be unobjectionable

Structures can show the parent of a compound that is named as a salt.
